Assay results published in patent US20080200416A1.
These are yes or no findings as the source states them, for the method shown. Binding seen in cells or lysates may run through a third protein. Some entries that bind do so weakly or less than the wild type.

Amino acid sequences for entries named in this document (tags omitted). Residues count along the entry.
UniProt P06240, residues 2-509: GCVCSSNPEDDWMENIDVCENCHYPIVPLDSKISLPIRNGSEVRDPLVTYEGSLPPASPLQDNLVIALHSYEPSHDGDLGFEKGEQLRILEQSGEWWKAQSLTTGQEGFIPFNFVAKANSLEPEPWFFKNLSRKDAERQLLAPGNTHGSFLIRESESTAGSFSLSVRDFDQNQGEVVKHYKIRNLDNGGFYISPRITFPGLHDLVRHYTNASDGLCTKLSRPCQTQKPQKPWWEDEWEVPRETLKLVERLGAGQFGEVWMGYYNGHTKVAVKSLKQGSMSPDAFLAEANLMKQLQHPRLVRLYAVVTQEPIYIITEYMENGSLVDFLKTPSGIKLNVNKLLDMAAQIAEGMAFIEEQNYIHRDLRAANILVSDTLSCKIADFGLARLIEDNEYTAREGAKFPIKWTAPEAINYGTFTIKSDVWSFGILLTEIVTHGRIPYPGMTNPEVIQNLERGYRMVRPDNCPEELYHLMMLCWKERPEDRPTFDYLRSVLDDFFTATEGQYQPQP
UniProt P29351: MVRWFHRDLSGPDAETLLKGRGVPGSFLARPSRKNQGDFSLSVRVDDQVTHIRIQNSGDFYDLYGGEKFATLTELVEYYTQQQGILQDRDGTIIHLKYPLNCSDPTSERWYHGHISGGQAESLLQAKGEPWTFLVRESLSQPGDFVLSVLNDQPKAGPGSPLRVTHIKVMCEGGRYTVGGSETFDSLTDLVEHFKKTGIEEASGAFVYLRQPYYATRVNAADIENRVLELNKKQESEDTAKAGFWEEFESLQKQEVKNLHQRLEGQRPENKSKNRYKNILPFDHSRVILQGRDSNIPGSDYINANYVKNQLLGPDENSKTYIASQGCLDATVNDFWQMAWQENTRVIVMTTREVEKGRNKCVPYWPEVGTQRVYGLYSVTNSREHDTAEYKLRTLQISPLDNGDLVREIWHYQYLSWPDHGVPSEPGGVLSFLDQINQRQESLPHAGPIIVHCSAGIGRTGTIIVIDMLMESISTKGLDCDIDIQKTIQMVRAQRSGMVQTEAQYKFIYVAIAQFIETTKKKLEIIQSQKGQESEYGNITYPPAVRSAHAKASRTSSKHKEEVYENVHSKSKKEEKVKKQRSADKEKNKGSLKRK

How the values were obtained:
Lck (mouse) [1] = molecular target: Lck (mouse) (UniProt P06240); assay: co-immunoprecipitation with anti-Lck from 5C.C7 T cell lysates, Western blot
Lck (mouse) [2] = molecular target: Lck (mouse) (UniProt P06240); assay: co-immunoprecipitation with anti-Lck, control against miR-181a T cell blasts

binding (Lck (mouse) [1]): binds | binding (Lck (mouse) [2]): binds
Substance: SHP-1 (from UniProt P29351 1-595) (enzyme)
